According to the supplement of paper PMC12067093, “Discovery and optimisation of a covalent ligand for TRIM25 and its application to targeted protein ubiquitination” (Chemical Science, 2025):
Some of the results follow.

Amino acid sequences for entries named in this document (tags omitted). A change or cut given only in a name is not applied to a line headed by its entry.
UniProt Q00341: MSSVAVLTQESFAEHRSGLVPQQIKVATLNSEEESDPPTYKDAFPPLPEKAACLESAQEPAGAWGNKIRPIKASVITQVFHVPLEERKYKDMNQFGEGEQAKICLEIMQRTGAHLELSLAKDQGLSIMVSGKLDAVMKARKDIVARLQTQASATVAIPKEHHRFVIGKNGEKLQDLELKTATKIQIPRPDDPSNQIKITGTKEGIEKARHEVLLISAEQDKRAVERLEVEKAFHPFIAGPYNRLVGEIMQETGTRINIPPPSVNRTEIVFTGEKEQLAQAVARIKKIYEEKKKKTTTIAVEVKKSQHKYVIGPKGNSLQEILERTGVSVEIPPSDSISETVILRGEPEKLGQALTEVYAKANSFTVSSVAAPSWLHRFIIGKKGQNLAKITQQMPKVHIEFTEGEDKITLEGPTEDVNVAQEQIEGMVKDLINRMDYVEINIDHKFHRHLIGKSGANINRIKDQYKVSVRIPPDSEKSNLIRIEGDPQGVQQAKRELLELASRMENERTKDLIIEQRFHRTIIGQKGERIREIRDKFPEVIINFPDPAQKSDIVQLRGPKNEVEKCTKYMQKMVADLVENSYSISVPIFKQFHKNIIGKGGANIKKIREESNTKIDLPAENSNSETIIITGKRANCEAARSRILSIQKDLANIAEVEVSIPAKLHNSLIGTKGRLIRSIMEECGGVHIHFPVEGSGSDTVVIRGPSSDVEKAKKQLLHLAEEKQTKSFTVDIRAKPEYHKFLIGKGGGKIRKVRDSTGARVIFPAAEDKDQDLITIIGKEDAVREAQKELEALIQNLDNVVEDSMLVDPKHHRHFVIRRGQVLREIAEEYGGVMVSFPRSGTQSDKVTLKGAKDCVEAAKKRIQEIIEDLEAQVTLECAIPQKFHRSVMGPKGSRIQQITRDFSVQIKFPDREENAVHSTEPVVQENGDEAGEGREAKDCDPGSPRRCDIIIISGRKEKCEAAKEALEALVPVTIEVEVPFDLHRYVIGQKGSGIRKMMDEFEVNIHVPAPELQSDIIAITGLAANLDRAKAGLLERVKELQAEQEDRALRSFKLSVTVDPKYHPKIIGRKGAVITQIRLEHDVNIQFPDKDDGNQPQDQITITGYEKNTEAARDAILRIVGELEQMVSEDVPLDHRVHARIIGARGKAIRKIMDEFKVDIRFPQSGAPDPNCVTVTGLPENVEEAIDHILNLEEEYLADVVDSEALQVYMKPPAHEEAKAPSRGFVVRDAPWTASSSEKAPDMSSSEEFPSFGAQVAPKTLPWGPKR
UniProt Q13547, whole entry, looked up: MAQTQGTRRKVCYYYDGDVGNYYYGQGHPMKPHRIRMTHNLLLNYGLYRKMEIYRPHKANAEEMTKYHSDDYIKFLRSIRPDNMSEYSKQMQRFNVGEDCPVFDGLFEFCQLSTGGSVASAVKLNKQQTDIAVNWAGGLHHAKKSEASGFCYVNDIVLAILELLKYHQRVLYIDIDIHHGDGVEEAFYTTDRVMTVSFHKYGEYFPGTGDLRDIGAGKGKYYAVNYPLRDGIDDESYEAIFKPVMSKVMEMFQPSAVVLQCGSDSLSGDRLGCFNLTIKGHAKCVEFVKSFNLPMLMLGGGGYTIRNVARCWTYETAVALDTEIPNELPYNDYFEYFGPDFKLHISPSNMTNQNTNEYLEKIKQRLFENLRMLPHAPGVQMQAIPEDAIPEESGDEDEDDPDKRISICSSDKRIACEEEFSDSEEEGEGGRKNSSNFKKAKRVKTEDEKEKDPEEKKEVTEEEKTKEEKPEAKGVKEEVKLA
UniProt P52790: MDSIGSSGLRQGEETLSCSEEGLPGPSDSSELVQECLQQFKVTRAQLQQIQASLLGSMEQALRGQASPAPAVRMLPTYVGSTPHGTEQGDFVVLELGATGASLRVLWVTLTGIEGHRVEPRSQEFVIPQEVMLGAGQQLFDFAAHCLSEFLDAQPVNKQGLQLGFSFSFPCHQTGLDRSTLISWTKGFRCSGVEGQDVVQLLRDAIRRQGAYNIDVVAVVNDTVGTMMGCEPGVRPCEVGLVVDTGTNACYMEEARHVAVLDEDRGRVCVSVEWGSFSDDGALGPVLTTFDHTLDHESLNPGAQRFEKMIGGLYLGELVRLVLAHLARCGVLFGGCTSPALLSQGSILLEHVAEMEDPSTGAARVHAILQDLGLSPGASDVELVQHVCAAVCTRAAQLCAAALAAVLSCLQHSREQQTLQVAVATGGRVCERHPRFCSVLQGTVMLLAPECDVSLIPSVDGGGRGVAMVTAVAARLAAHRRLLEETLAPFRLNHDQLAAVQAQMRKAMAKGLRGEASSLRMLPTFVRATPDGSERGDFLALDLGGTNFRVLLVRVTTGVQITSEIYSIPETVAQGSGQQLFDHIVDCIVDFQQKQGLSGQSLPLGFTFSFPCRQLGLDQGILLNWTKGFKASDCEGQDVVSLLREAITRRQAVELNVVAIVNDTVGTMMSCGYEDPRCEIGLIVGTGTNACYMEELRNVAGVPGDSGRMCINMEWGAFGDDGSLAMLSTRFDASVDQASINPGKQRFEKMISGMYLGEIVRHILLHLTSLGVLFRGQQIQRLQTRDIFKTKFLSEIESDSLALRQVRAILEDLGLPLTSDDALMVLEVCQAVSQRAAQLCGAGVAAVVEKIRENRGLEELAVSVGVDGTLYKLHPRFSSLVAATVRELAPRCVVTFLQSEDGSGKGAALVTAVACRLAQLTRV
UniProt P52789: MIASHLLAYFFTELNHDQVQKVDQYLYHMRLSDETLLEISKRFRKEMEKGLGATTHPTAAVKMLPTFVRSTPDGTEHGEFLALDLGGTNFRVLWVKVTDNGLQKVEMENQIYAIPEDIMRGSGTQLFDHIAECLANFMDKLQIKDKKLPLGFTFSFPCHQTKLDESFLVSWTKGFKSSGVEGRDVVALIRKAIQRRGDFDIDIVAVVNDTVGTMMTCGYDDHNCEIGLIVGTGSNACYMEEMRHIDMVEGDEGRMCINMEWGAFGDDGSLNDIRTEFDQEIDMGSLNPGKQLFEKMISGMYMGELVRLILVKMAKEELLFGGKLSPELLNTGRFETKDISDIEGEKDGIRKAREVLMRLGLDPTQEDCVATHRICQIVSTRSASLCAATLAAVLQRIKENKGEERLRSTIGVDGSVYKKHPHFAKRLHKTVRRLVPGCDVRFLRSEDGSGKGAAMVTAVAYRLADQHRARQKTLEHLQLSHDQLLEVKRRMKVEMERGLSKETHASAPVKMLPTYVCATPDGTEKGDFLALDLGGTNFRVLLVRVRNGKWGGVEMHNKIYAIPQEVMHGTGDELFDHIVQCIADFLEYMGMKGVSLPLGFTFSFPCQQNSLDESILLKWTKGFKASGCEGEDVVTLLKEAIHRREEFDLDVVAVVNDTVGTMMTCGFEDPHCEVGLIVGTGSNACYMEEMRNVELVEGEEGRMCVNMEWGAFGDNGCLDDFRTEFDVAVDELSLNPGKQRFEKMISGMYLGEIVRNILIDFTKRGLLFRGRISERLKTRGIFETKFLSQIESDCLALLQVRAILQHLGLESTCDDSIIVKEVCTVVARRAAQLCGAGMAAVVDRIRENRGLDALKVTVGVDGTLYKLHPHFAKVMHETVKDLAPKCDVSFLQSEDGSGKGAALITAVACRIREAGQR
UniProt Q5GLZ8: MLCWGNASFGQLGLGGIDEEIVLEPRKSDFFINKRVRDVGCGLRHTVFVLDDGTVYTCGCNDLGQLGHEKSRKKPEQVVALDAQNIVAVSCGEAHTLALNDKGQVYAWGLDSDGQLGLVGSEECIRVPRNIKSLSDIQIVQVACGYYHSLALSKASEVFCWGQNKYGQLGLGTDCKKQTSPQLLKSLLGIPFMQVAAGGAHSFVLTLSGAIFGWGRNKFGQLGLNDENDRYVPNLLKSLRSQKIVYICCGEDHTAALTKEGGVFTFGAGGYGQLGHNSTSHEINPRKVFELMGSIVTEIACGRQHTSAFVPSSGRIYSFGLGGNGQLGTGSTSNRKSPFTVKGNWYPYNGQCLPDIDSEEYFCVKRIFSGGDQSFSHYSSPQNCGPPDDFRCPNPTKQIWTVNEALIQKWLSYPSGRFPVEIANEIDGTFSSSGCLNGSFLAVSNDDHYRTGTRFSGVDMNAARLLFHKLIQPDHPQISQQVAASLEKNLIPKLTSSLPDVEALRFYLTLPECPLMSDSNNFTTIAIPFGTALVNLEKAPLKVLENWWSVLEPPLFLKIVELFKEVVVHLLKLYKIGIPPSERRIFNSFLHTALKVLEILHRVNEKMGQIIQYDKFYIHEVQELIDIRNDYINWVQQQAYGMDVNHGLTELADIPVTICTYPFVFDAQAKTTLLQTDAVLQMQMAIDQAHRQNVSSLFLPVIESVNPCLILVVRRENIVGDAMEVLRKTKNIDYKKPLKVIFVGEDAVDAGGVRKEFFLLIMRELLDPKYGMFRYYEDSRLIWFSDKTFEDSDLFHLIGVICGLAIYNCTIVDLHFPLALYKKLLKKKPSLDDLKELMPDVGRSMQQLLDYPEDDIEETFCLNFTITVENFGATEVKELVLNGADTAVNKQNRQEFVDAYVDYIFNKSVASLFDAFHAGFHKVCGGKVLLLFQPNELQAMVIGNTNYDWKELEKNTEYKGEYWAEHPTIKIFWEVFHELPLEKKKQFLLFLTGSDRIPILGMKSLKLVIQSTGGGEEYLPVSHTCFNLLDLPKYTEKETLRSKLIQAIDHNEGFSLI
UniProt P01891, whole entry, looked up: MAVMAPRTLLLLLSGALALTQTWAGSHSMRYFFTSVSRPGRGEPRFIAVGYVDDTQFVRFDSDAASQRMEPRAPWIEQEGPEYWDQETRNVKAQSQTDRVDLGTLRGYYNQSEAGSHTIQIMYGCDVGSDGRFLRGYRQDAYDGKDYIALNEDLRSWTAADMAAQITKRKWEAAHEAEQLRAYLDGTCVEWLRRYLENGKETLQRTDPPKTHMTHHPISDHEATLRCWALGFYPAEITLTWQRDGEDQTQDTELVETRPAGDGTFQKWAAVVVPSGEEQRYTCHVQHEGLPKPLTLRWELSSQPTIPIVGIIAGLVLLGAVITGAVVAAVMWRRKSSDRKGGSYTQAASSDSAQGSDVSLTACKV
UniProt P04222, whole entry, looked up: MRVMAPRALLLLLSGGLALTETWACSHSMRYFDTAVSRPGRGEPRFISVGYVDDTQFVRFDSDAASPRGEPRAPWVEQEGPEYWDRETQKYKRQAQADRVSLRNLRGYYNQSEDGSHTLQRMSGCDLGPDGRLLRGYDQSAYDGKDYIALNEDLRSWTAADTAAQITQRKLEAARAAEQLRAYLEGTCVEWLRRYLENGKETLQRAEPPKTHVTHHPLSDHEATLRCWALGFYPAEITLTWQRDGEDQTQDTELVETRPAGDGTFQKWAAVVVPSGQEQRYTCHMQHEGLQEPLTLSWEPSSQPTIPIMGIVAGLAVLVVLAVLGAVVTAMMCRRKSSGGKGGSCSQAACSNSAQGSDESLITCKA
UniProt Q9UBN7: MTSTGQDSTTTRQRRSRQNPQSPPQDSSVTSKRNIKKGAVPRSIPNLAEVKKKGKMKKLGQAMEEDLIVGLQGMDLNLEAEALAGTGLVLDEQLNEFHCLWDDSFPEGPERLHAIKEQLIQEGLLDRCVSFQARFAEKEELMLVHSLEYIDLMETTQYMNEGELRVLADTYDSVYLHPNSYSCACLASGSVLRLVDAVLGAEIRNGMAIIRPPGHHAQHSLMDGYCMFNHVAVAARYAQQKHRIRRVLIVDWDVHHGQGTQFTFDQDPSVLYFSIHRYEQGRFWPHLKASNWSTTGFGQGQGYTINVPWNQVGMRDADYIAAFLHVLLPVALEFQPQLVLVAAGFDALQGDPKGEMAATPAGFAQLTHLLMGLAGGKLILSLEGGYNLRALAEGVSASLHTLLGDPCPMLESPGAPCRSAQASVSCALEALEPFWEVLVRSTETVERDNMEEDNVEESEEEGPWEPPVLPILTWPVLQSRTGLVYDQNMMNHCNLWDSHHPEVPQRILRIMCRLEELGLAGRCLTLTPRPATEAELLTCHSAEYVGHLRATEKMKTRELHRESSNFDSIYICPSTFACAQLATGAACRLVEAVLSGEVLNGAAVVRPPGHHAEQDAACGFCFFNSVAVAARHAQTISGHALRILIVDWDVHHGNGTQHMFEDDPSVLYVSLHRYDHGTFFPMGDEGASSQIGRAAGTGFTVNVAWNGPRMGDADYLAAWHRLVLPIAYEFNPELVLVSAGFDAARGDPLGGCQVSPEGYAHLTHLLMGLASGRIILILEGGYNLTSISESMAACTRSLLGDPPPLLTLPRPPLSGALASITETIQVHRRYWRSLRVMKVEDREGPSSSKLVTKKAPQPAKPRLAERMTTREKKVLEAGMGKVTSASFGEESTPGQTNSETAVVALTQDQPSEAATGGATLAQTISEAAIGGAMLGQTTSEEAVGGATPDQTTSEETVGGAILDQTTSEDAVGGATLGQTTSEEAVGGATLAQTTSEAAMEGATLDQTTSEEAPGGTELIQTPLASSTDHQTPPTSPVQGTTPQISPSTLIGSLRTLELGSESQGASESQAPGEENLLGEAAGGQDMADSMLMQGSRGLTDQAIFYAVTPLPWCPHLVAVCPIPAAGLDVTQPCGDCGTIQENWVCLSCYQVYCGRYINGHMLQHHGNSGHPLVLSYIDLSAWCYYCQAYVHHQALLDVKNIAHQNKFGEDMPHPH

Compound: Cc1cc(ccc1-c1ccccc1)C(=O)N1CCCN(CC1)C(=O)CCl [compound 10]
Test: probe-labelled cysteine peptide fold change vs DMSO (competition) (log2 fold change); higher = less target engagement (more negative = stronger competition)
Details: THP-1, incubation time: 4 h
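Also: competitive profiling in live THP-1 cells: cysteine peptides tagged with an iodoacetamide desthiobiotin (IA-DTB) probe, intensity after compound treatment relative to DMSO-treated cells.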

| Target | probe-labelled cysteine peptide fold change (10 µM) | probe-labelled cysteine peptide fold change (50 µM) |
| --- | --- | --- |
| HDLBP_Q00341_636_ANCEAAR (UniProt Q00341) | -0.0892 | 0.738 |
| HECTD1_Q9ULT8_187_MEPQDSSLEICVESLSSLLK (UniProt Q9ULT8) | -0.0575 | -0.0595 |
| HIKESHI_Q53FT3_4_MFGCLVAGR (UniProt Q53FT3) | 0.0273 | 0.227 |
| HECTD4_Q9Y4D8-5_275_LLLLEGGPGSPSCLLGGK (UniProt Q9Y4D8) | -0.0542 | 0.193 |
| HCFC1_P51610_149_CYLFGGLANDSEDPK (UniProt P51610) | -0.0552 | 0.278 |
| HMGCL_P35914_141_NINCSIEESFQR (UniProt P35914) | 0.262 | 0.184 |
| HELZ_P42694_80_NYVQADEDCR (UniProt P42694) | 0.0451 | 0.15 |
| HIP1_O00291_613_LASTEESMCQLAK (UniProt O00291) | -0.298 | -0.336 |
| HDAC2_Q92769_13_VCYYYDGDIGNYYYGQGHPMK (UniProt Q92769) | 0.116 | 0.377 |
| HMG20B_Q9P0W2_177_GGDCDGFSTFDVPIFTEEFLDQNK (UniProt Q9P0W2) | -0.236 | -0.399 |
| HERC1_Q15751_3818_DVLVVNCTAEWAAANHVLATCR (UniProt Q15751) | 0.0212 | 0.00404 |
| HDHD2_Q9H0R4_194+206_GTGCEPEEAVMIGDDCRDDVGGAQDVGMLGILVK (UniProt Q9H0R4) | 0.102 | 0.512 |
| HERC2_O95714_3979_VPTPCEALATLRPVQLIGGEQTLFAVTADGK (UniProt O95714) | -0.316 | 0.144 |
| HMGCR_P04035_382_CDSVEEETGINR (UniProt P04035) | -0.0763 | -0.0428 |
| HDAC8_Q9BY41_352_TLSSEIPDHEFFTAYGPDYVLEITPSCRPDR (UniProt Q9BY41) | 0.0267 | -0.385 |
| HEATR1_Q9H583_2048_HLIPCIAQFSVAMADDSLWK (UniProt Q9H583) | 0.279 | 0.303 |
| HGD_Q93099_180_MLVQPNEICVIQR (UniProt Q93099) | -0.089 | 0.177 |
| HDLBP_Q00341_948_RCDIIIISGR (UniProt Q00341) | -0.0376 | -0.000543 |
| HCFC2_Q9Y5Z7_659_VAAINGCGIGPFSK (UniProt Q9Y5Z7) | -0.1 | -0.0904 |
| HDAC1_Q13547_273_LGCFNLTIK (UniProt Q13547) | 0.00301 | 0.28 |
| HELZ_P42694_199_YGAQCTSAHSQEELAEWQK (UniProt P42694) | 0.186 | 0.276 |

| Target | probe-labelled cysteine peptide fold change (10 µM) | probe-labelled cysteine peptide fold change (50 µM) |
| --- | --- | --- |
| HDGFL2_Q7Z4V5-2_631_CGSSEDLHDVR (UniProt Q7Z4V5) | 0.0376 | -0.265 |
| HK3_P52790_190_CSGVEGQDVVQLLR (UniProt P52790) | 0.199 | -0.106 |
| HERC2_O95714_4517_DESGANRDCYLLSPAAR (UniProt O95714) | 0.221 | 0.126 |
| HK2_P52789_794_FLSQIESDCLALLQVR (UniProt P52789) | 0.24 | -0.122 |
| HEATR5B_Q9P2D3_616_AGALCAMR (UniProt Q9P2D3) | -0.0388 | -0.0489 |
| HIP1_O00291_430_QQAADDCEFLR (UniProt O00291) | 0.0761 | 0.11 |
| HK1_P19367_158_KLPVGFTFSFPCQQSK (UniProt P19367) | -0.153 | 0.124 |
| HIP1R_O75146_906_VVLHTGKYEELIVCSHEIAASTAQLVAASK (UniProt O75146) | 0.138 | 0.236 |
| HK2_P52789_628_ASGCEGEDVVTLLK (UniProt P52789) | -0.105 | 0.156 |
| HERC4_Q5GLZ8_58+60_HTVFVLDDGTVYTCGCNDLGQLGHEK (UniProt Q5GLZ8) | -0.0133 | -1.05 |
| HLA-A_P01891_363_GGSYSQAASSDSAQGSDVSLTACK (UniProt P01891) | -0.379 | -0.0445 |
| HMGCS1_Q01581_406_ITASLCDLK (UniProt Q01581) | -0.096 | -0.145 |
| HDLBP_Q00341_878_RIQEIIEDLEAQVTLECAIPQK (UniProt Q00341) | 0.0241 | 0.132 |
| HDHD5_Q9BXW7_392_DLCFSPGLMEASHVVNDVNEAVQLVFRK (UniProt Q9BXW7) | -0.183 | -1.22 |
| HEATR3_Q7Z4Q2_171+173_NSIENIANETVNVLWNICECSSR (UniProt Q7Z4Q2) | 0.521 | -0.204 |
| HIRIP3_Q9BW71_86_RPPTPCSDPER (UniProt Q9BW71) | -0.266 | -0.993 |
| HECTD4_Q9Y4D8_2036_DGAWTNPVGTCLFHNNGR (UniProt Q9Y4D8) | 0.0956 | 0.212 |
| HEBP1_Q9NRV9_168_GDIYFCTGYDPPMKPYGR (UniProt Q9NRV9) | -0.0415 | -0.553 |
| HDAC1_Q13547_12_VCYYYDGDVGNYYYGQGHPMKPHR (UniProt Q13547) | -0.104 | -0.414 |
| HECTD1_Q9ULT8_2086_QLYFTCTAFGASR (UniProt Q9ULT8) | 0.171 | 0.328 |
| HLA-A_P01891_363_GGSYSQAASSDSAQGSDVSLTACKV (UniProt P01891) | -0.356 | -0.619 |

| Target | probe-labelled cysteine peptide fold change (10 µM) | probe-labelled cysteine peptide fold change (50 µM) |
| --- | --- | --- |
| HERC2_O95714_1201_ERDDHEELAWPGIMESFFTGQNCR (UniProt O95714) | -0.0998 | -0.244 |
| HLA-A_P01892_125_MYGCDVGSDWR (UniProt P01892) | -0.124 | -0.0856 |
| HERC2_O95714_2609_DGLHDLNVQCDWQQK (UniProt O95714) | -0.111 | 0.125 |
| HLA-C_P04222_345_GGSCSQAASSNSAQGSDESLIACK (UniProt P04222) | -0.3 | -0.868 |
| HK3_P52790_840_AAQLCGAGVAAVVEK (UniProt P52790) | 0.169 | -0.0558 |
| HK1_P19367_834_AAQLCGAGMAAVVDK (UniProt P19367) | 0.0935 | 0.0681 |
| HEATR1_Q9H583_1942_LLTFYNLADCIAEK (UniProt Q9H583) | -0.246 | 0.34 |
| HEATR5B_Q9P2D3_1137_TDIHCR (UniProt Q9P2D3) | -0.384 | -0.96 |
| HERC2_O95714_2881_TININPSDTTVPLLNDCTEYHR (UniProt O95714) | -0.124 | 0.418 |
| HDAC6_Q9UBN7_417_ALAEGVSASLHTLLGDPCPMLESPGAPCR (UniProt Q9UBN7) | 0.0166 | -0.0111 |
| HLA-DRB5_Q30154_146_TQTLQHHNLLVCSVNGFYPGSIEVR (UniProt Q30154) | 0.00511 | 0.0856 |
| HMGCR_P04035_600_ACDSAEVK (UniProt P04035) | -0.0934 | -0.109 |
| HMGCS1_Q01581_268_DFTLNDFGFMIFHSPYCK (UniProt Q01581) | -0.0231 | -0.138 |
| HDAC6_Q9UBN7_752_GDPLGGCQVSPEGYAHLTHLLMGLASGR (UniProt Q9UBN7) | -0.0314 | 0.0939 |
| HDAC2_Q92769_13_KVCYYYDGDIGNYYYGQGHPMK (UniProt Q92769) | 0.103 | -0.0158 |
| HCFC1_P51610_1886+1895_TCLPGFPGAPCAIK (UniProt P51610) | -0.0598 | -0.236 |
| HELB_Q8NG08_350_SCVFPYDLYHAER (UniProt Q8NG08) | -0.0198 | -0.0529 |
| HEATR5B_Q9P2D3_1166_LCSDIHDTLGHMLSSLAVEK (UniProt Q9P2D3) | -0.0206 | -0.0886 |
| HLA-E_P13747_280_YTCHVQHEGLPEPVTLR (UniProt P13747) | -0.061 | 0.0876 |
| HECTD1_Q9ULT8_1389_KGSSSSVCSVASSSDISLGSTK (UniProt Q9ULT8) | -0.299 | 0.00682 |
| HERC4_Q5GLZ8_60_HTVFVLDDGTVYTCGCNDLGQLGHEK (UniProt Q5GLZ8) | -0.221 | -0.759 |

| Target | probe-labelled cysteine peptide fold change (10 µM) | probe-labelled cysteine peptide fold change (50 µM) |
| --- | --- | --- |
| HK2_P52789_386_SASLCAATLAAVLQR (UniProt P52789) | 0.118 | 0.132 |
| HIRA_P54198_867_QDSLAQCADFR (UniProt P54198) | 0.0167 | 0.112 |
| HELB_Q8NG08_127_HICALFLK (UniProt Q8NG08) | -0.086 | -0.0379 |
| HEATR5B_Q9P2D3_1166_KLCSDIHDTLGHMLSSLAVEK (UniProt Q9P2D3) | 0.0501 | -0.37 |
| HDAC9_Q9UKV0_534_SDSSACVDDTLGQVGAVK (UniProt Q9UKV0) | 0.0654 | -0.0512 |
| HK1_P19367_368+375_LGVEPSDDDCVSVQHVCTIVSFR (UniProt P19367) | -0.25 | 0.0499 |
| HINT3_Q9NQE9_73_QDPGTELLHCENEDLICFK (UniProt Q9NQE9) | -0.067 | -0.0225 |
| HLA-C_P04222_345+364_GGSCSQAASSNSAQGSDESLIACKA (UniProt P04222) | -0.638 | -1.66 |
| HCFC1_P51610_353_AWNNQVCCK (UniProt P51610) | -0.0641 | -0.0904 |
| HELZ_P42694_100_AVLCCMQLK (UniProt P42694) | -0.406 | -1.27 |
| HDAC8_Q9BY41_153_KDEASGFCYLNDAVLGILR (UniProt Q9BY41) | -0.0393 | 0.0564 |
| HINT2_Q9BX68_75_SLPADILYEDQQCLVFR (UniProt Q9BX68) | -0.0795 | 0.0377 |
| HEATR3_Q7Z4Q2_464_KMNTIQCR (UniProt Q7Z4Q2) | 0.0854 | -0.48 |
| HECTD4_Q9Y4D8_3446_CACIDVR (UniProt Q9Y4D8) | -0.0352 | -0.0833 |
| HGS_O14964_190_ACGQIFCGK (UniProt O14964) | -0.0495 | -0.186 |
| HERPUD1_Q15011_86_HVLHLVCNVK (UniProt Q15011) | 0.905 | -0.193 |
| HERC4_Q5GLZ8_392_CPNPTK (UniProt Q5GLZ8) | -0.121 | -0.328 |
| HK1_P19367_133_NQNVHMESEVYDTPENIVHGSGSQLFDHVAECLGDFMEK (UniProt P19367) | 0.0502 | 0.0873 |
| HCK_P08631_48_TETSASPHCPVYVPDPTSTIK (UniProt P08631) | -0.245 | -0.196 |
